Measured values from PubChem BioAssay AID445 (National Center for Advancing Translational Sciences (NCATS), 2006).
The list shows a part of the results. Shown are side measurements of this screen, not its main read-out; they come without a call. Compounds called inactive in the main read-out are mostly missing here. Words in brackets tell the shape of the fitted curve; partial curves, single points and poor fits give uncertain potencies.

Test: IkB Signaling
Conditions: ABC-DLBCL IkBa-CBG/CBR dual luciferase ratio (green luciferase fused to IkBa over red control in OCI-Ly3 lymphoma cells), 4 h
Outline: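 Luminescence ratio of IκBα-fused green versus native red beetle luciferase in OCI-Ly3 cells, 4 h post-doxycycline with compound; red signal alone, scaled from basal (0%) to zero light (-100%), flagged nonspecific or cytotoxic effects.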

[1] = measured here: control luc red channel unless noted

## COc1ccc(NCc2cc3ccc(OC)cc3n(CC(=O)Nc3cc(Cl)ccc3C)c2=O)cc1
[1]
  AC50: 0.794 µM [falling, full curve]

## COc1ccc2c(c1)CCc1c(C(=O)N3CCc4ccccc4C3)noc1-2
[1]
  AC50: 25.1 µM [falling, partial curve]

## CC(Oc1ccccc1F)C(=O)Nc1ccc(-c2nc3ccccc3s2)cc1 (stereo not drawn)
[1]
  AC50: 0.794 µM [rising, full curve]

## CCc1cccc(NC(=O)CN(C)S(=O)(=O)c2cccc3cccnc23)c1
[1]
  AC50: 25.1 µM [falling, single point]

## CC1CC(C)CN(C(=O)CSCC(=O)Nc2nc(-c3cccs3)cs2)C1 (stereo not drawn)
[1]
  AC50: 7.94 µM [falling, partial curve]

## O=C1c2ccccc2-c2onc3c(NCCO)cc(NC4CCCCC4)c1c23
[1]
  AC50: 20 µM [falling, partial curve]

## COc1ccc(C(CNC(=O)COc2cc(C)cc(C)c2)N2CCOCC2)cc1 (stereo not drawn)
[1]
  AC50: 39.8 µM [falling, single point]

## Cn1nccc1C(=O)NCc1ccc2c(c1)CCN2C(=O)c1ccc(Cl)cc1
[1]
  AC50: 10 µM [falling, partial curve]

## COc1ccc(N2CCN(c3csc4ccccc4c3=O)CC2)cc1
[1]
  AC50: 31.6 µM [falling, single point]

## CCc1ccccc1NC(=O)C1CCCN(c2cnccn2)C1 (stereo not drawn)
[1]
  AC50: 1.58 µM [falling, partial curve, poor fit]

## Cc1ccc(NC(=O)CSc2nc(=O)cc(N)n2CCc2ccccc2)cc1
[1]
  AC50: 31.6 µM [falling, partial curve]

## COc1ccccc1OCC(=O)Nc1c(C(=O)c2ccc(F)cc2)oc2ccccc12
[1]
  AC50: 0.398 µM [rising, partial curve]

## COc1ccc(NC(=O)C(NC(=O)/C=C\c2ccc3c(c2)OCO3)c2ccccc2)cc1 (stereo not drawn)
[1]
  AC50: 31.6 µM [falling, single point]

## O=C(CSc1c2c(nc3cc(Cl)ccc13)CCCC2)NCc1ccccc1Cl
[1]
  AC50: 39.8 µM [falling, single point]

## COc1ccc(C2N3CC4(C)CN2CC(c2ccccc2)(C3)C4=O)cc1OC (stereo not drawn)
[1]
  AC50: 20 µM [falling, partial curve]

## COc1ccc(C2CC(=O)c3cc(-c4nc(-c5cccc([N+](=O)[O-])c5)cs4)c(=O)n(-c4ccc(OC)cc4)c3C2)cc1 (stereo not drawn)
[1]
  AC50: 0.01 µM [falling, full curve]

## CCc1ccc(S(=O)(=O)c2nnn3c2nc(NCCNC(C)=O)c2cc(Cl)ccc23)cc1
[1]
  AC50: 15.8 µM [falling, single point]

## COc1ccc(CCN2C(=O)CN(C3CCC(C)CC3)C(=O)C2c2ccc(OC(C)C)c(OC)c2)cc1OC (stereo not drawn)
[1]
  AC50: 0.501 µM [falling, full curve]

## Cc1ccccc1C(=O)c1cccn1CC(=O)NCc1cccc(Cl)c1
[1]
  AC50: 20 µM [falling, single point]

## Cn1c(SCc2ccccc2F)nc2c([nH]c3ccccc32)c1=O
[1]
  AC50: 0.794 µM [rising, full curve]

## COCCN(CCOC)c1ncnc2c1c(-c1ccccc1)cn2-c1ccc(C)c(Cl)c1
[1]
  AC50: 3.98 µM [rising, partial curve, poor fit]

## CCCCNC(=O)C(CC)Sc1nc2ccccc2c(=O)n1CCc1ccc(OC)c(OC)c1 (stereo not drawn)
[1]
  AC50: 3.16 µM [rising, partial curve, poor fit]

## CCOC(=O)c1ccc(NC(=O)c2nn(C)c3c2COc2ccccc2-3)cc1
[1]
  AC50: 6.31 µM [falling, partial curve]

## CC(C)c1ccc(OCc2cc(=O)n3c(-c4ccccc4)csc3n2)cc1
[1]
  AC50: 2 µM [rising, partial curve]

## CN1CCN(C(CNC(=O)C(=O)Nc2cccc(Cl)c2)c2ccc3c(c2)OCO3)CC1 (stereo not drawn)
[1]
  AC50: 7.94 µM [falling, partial curve, poor fit]

## CC1=C(C(=O)Nc2ccc(C)cc2C)C(c2ccccc2F)n2nc(SCC(=O)c3ccc(C)cc3)nc2N1 (stereo not drawn)
[1]
  AC50: 39.8 µM [falling, single point]

## CCc1ccc(NC(=O)c2cnc3sc(N4CCCC4)nn3c2=O)cc1
[1]
  AC50: 3.98 µM [rising, partial curve]

## COc1ccccc1NC(=O)C1CCC(CNS(=O)(=O)c2ccc3c(c2)CC(C)N3C(C)=O)CC1 (stereo not drawn)
[1]
  AC50: 25.1 µM [falling, partial curve]

## Cc1noc(C)c1COC(=O)c1ccccc1Sc1ccccc1C#N
[1]
  AC50: 39.8 µM [falling, single point]

## CCc1ccc(NC(=O)Cn2c(-c3cncs3)nc3ccccc32)cc1
[1]
  AC50: 39.8 µM [falling, single point]

## CCn1c2ccccc2c2cc(CN3CCN(Cc4ccccc4C)CC3)ccc21
[1]
  AC50: 25.1 µM [falling, single point]

## O=C(c1ccc2c(c1)N(Cc1cccc(Cl)c1)C(=O)c1ccccc1S2)N1CCOCC1
[1]
  AC50: 39.8 µM [falling, partial curve]

## c1ccc(OCCn2c(COc3ccccc3)nc3ccccc32)cc1
[1]
  AC50: 1.26 µM [falling, partial curve]

## Cc1ccc(C(=O)COc2cccc(NC(=O)c3ccco3)c2)cc1
[1]
  AC50: 25.1 µM [falling, partial curve]

## O=C(NCC1CCCO1)C1CCCN(S(=O)(=O)c2cccc3nsnc23)C1 (stereo not drawn)
Measured here: IkB-luc green channel
  AC50: 7.94 µM [rising, single point]
Measured here: control luc red channel
  AC50: 6.31 µM [falling, partial curve]

## O=C1c2oc3ccccc3c(=O)c2C(c2cccc(Cl)c2)N1c1ccccn1 (stereo not drawn)
[1]
  AC50: 10 µM [falling, partial curve]

## CCOc1ccc(NC(=O)Cn2cc(C(=O)c3ccc(OCC)cc3)c(=O)c3cc4c(cc32)OCCO4)cc1
[1]
  AC50: 0.501 µM [rising, full curve, poor fit]

## Cc1ccc(CCNC(=O)c2cc3cc4cc(C)ccc4nc3s2)cc1
[1]
  AC50: 2.51 µM [falling, full curve]

## COc1cc(C2=NOC(C(=O)N3CCN(c4ccc(F)cc4)CC3)C2)cc(OC)c1OC (stereo not drawn)
[1]
  AC50: 12.6 µM [falling, partial curve]

## COc1ccccc1Cn1c(CNS(=O)(=O)c2ccc(CC(C)C)cc2)nc2cccnc21
[1]
  AC50: 25.1 µM [falling, single point]

## COc1cccc(N2C(=O)C(CC(=O)Nc3ccc(F)cc3)N(CCC3=CCCCC3)C2=O)c1 (stereo not drawn)
[1]
  AC50: 20 µM [falling, partial curve]

## O=C1C2=C(Nc3ccccc3SC2c2ccc(Cl)c(Cl)c2)c2ccccc21 (stereo not drawn)
[1]
  AC50: 6.31 µM [falling, partial curve]

## COC(=O)Cc1c(C)c2cc3c(c(C)c2oc1=O)OCN(CCc1ccc(F)cc1)C3
[1]
  AC50: 15.8 µM [falling, single point]

## Nc1c(C(=O)NCc2ccc3c(c2)OCO3)nnn1CC(=O)Nc1ccc(Br)cc1
[1]
  AC50: 2 µM [falling, partial curve]

## CC(=O)N1CCCc2cc(S(=O)(=O)N3CCCC(C(=O)NCc4ccccc4)C3)ccc21 (stereo not drawn)
[1]
  AC50: 0.2 µM [falling, full curve, poor fit]

## CCc1ccc(-c2cc(C)no2)cc1S(=O)(=O)Nc1ccc(Cl)cn1
[1]
  AC50: 39.8 µM [falling, single point]

## Cc1ccc(Cn2cc(C(=O)c3ccc(C)cc3)c(=O)c3ccc(C)nc32)cc1
[1]
  AC50: 39.8 µM [falling, single point]

## Cn1c(COc2ccc(Cl)cc2)nnc1SCc1ncc(-c2ccccc2)o1
[1]
  AC50: 15.8 µM [falling, partial curve]

## COc1ccc(/C=C/C(=O)N2CCC(c3nc4ccccc4o3)CC2)cc1
[1]
  AC50: 0.158 µM [falling, full curve]

## CCOc1ccc(N(CC)S(=O)(=O)N2CCCC(C(=O)Nc3ccc(NC(C)=O)cc3)C2)cc1 (stereo not drawn)
[1]
  AC50: 20 µM [falling, single point]

## COc1cccc(C(=O)Nc2cc(-c3ccccc3)nn2-c2ccccc2)c1
[1]
  AC50: 31.6 µM [falling, single point]

## O=C(COc1ccc2oc3c(c2c1)CCCC3)Nc1ccc(Cl)cc1
[1]
  AC50: 12.6 µM [falling, partial curve]

## CCOc1ccc(-c2c(C)nn3c(-c4ccccc4)c(C(=O)NCCOC)cnc23)cc1OCC
[1]
  AC50: 20 µM [falling, single point]

## O=C(Nc1ccc2c(c1)oc1ccccc12)c1cccnc1
[1]
  AC50: 20 µM [falling, single point]

## CC1CCC/C(=C\Nc2ccccc2C(=O)O)C1=O (stereo not drawn)
[1]
  AC50: 12.6 µM [falling, partial curve]

## CCN(C(=O)Cn1c(SCC(=O)NCc2ccccc2)nc2ccccc21)c1cccc(C)c1
[1]
  AC50: 25.1 µM [falling, partial curve]

## Cc1ccc(-n2nc(C(=O)NCCc3cccc(C)c3)c3c4ccccc4n(C)c3c2=O)cc1
[1]
  AC50: 0.158 µM [falling, full curve, poor fit]

## COc1ccc(OC)c(CNC(=O)c2cc(-c3ccc(Cl)s3)nc3ccccc23)c1
[1]
  AC50: 3.16 µM [falling, full curve, poor fit]

## COc1cc(-c2nc3n(n2)C(c2ccc(F)cc2)C(C(N)=O)=C(C)N3)cc(OC)c1OC (stereo not drawn)
[1]
  AC50: 31.6 µM [falling, single point]

## Cc1cc(C)n(-c2ncc(-c3ccccc3)nn2)n1
[1]
  AC50: 25.1 µM [falling, single point]

## Cc1ccc(N2C(=O)c3oc4cc(C)c(C)cc4c(=O)c3C2c2cccc(O)c2)nc1 (stereo not drawn)
[1]
  AC50: 12.6 µM [falling, partial curve]

## CCCN(CCC)C(=O)c1c[nH]c2ccc(S(=O)(=O)Nc3cc(C)cc(C)c3)cc2c1=O
[1]
  AC50: 12.6 µM [falling, partial curve]
